Consider 40 molecules from the supplement of paper PMC8256030.

Several values for one entry are separate records, joined by “and”; a condition that tells them apart may be missing. Identical values can stand only once. Counter-ions that a name gives are not always drawn. Some of the results follow. Repeats in this data set agree poorly, so a single value says little.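 HEK293T cells were given each compound shortly before transfection with a reporter in which red mCherry is followed by the SARS-CoV-2 frameshift element and then GFP in the −1 frame, so GFP appears only after frameshifting.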

The first assay concerns SARS-CoV-2 -1 PRF reporter mCherry-FSE-GFP(-1). As to the kind of experiment: mCherry (red) intensity as percent of control; higher = higher upstream reporter expression. The conditions noted are these: 10 µM; 24 h; HEK293T.
Consider `O=C(O)C1=C(CSc2nnnn2CS(=O)(=O)O)CS[C@@H]2[C@H](NC(=O)[C@H](O)c3ccccc3)C(=O)N12` [Monocid], for which the mCherry is 114%.
The same measure, in the same setting: to `CCCCOc1ccc(NC(=S)Nc2ccc(N(C)C)cc2)cc1` [N-(4-butoxyphenyl)-N'-[4-(dimethylamino)phenyl]thiourea] belongs 100%; to `O=c1[nH]cnc2c1ncn2[C@@H]1O[C@H](CO)[C@@H](O)[C@H]1O` [inosine], 131%; to `COC[C@H]1O[C@@H](OC2OC[C@@H]3O[C@]4(O[C@H]3[C@H]2OC(=O)C(C)C)O[C@H](C)[C@@](O)(C(C)=O)[C@@H]2OCO[C@H]24)[C@@H](OC)[C@@H](O)[C@@H]1O[C@@H]1O[C@H](C)[C@H](OC)[C@H](O[C@H]2C[C@@]3(C)OC4(C[C@@H](O)[C@H](O[C@H]5C[C@@H](O)[C@H](OC(=O)c6c(C)c(Cl)c(O)c(Cl)c6OC)[C@@H](C)O5)[C@@H](C)O4)O[C@@H]3[C@@H](C)O2)[C@H]1O` (some centres not stated) [avilamycin], 128%.
On to `C[C@H](Cc1ccc(O)c(O)c1)[C@@H](C)Cc1ccc(O)c(O)c1` [Actinex], for which the mCherry came out at 36.2%.
For the molecule `CC(C(=O)O)c1ccc(N2Cc3ccccc3C2=O)cc1` (configuration not stated) [indoprofen], the mCherry was determined as 98%.
For the molecule `CC[C@H]1OC(=O)[C@H](C)[C@@H](O[C@H]2C[C@@](C)(OC)[C@@H](O)[C@H](C)O2)[C@H](C)[C@@H](O[C@@H]2O[C@H](C)C[C@H](N(C)C)[C@H]2O)[C@](C)(O)C[C@@H](C)C(=O)[C@H](C)[C@@H](O)[C@H]1C` [berythromycin], the mCherry is 80.2%.

The test system is the same in the next assay. As to the kind of experiment: percent effect, decrease of GFP/mCherry ratio (-1 PRF reporter) relative to controls; higher = stronger frameshift inhibition. The conditions noted are these: 10 µM; 24 h; HEK293T.
As to `Nc1nc(CC(=O)Nc2ccc(CCNC[C@H](O)c3ccccc3)cc2)cs1` [Mirabegron], the percent effect is -4.75%.
In the case of `NC(=O)c1cccnc1` [nicotinamide], the percent effect was -2.83%.
For `Nc1nc(=O)c2c([nH]1)NC[C@@H](CNc1ccc(C(=O)N[C@@H](CCC(=O)O)C(=O)O)cc1)N2` [Tetrahydrofolate], the percent effect was -2.34%.
As to `CC[C@H]1OC(=O)[C@H](C)[C@@H](O[C@H]2C[C@@](C)(OC)[C@@H](O)[C@H](C)O2)[C@H](C)[C@@H](O[C@@H]2O[C@H](C)C[C@H](N(C)C)[C@H]2O)[C@](C)(O)C[C@@H](C)[C@@H]2N[C@@H](COCCOC)O[C@H]([C@H]2C)[C@]1(C)O` [dirithromycin], the percent effect is -4.04% and -0.0626% and -7.35%.
For the molecule `COC(=S)NCCn1c([N+](=O)[O-])cnc1C` [carnidazole], the percent effect worked out at 1.28%.
`CN1C(C(=O)Nc2ccccn2)=C(O)c2ccccc2S1(=O)=O` [Piroxicam]: the percent effect came out at 2.25%.
In the case of `CCN(CC)CCCCCCNc1cc(OC)cc2c(C)ccnc12` [sitamaquine], the percent effect is -12.5%.
As for `O=C(O)CCCC[C@@H]1SC[C@@H]2NC(=O)N[C@@H]21` [biotin], the percent effect was 1.24% and 0.129%.
In the case of `COCC1=C(C(=O)OC(C)OC(=O)OC(C)C)N2C(=O)[C@@H](NC(=O)/C(=N\OC)c3csc(N)n3)[C@H]2SC1` (some centres not stated), the percent effect was -7.1%.
For `CCCCCCCCCCCC[N+](C)(C)CCOc1ccccc1` [domiphen], the percent effect was -2.11%.
On to `CN1C(=O)CC(c2ccccc2)C1=O` (configuration not stated) [phensuximide], for which the percent effect is -0.146%.
As to `Cc1ccc(S(=O)(=O)NC(=O)NN2CCCCCC2)cc1` [Tolazamide], the percent effect is -7.04%.
On to `Nc1nc(=O)n([C@@H]2O[C@H](CO)[C@@H](O)[C@@H]2F)cc1I` [fiacitabine], for which the percent effect was -0.601%.
For `C[C@@H](O)[C@@H]1NC(=O)[C@H](CCCCN)NC(=O)[C@@H](Cc2c[nH]c3ccccc23)NC(=O)[C@H](Cc2ccccc2)NC(=O)[C@@H](NC(=O)[C@H](N)Cc2ccccc2)CSSC[C@@H](C(=O)N[C@H](CO)[C@@H](C)O)NC1=O` [Sandostatin], the percent effect was -2.26%.
As to `O=C(O)CCC(=O)c1ccc2oc3ccccc3c2c1` [furobufen], the percent effect is -8.48%.
On the same count and under the same terms, to `Cc1cc2c(cc1S(N)(=O)=O)S(=O)(=O)CCC2` [meticrane] belongs -0.486%; to `CCN(CC)CCNC(=O)c1ccc(N)cc1` [procainamide], -2.97% and -0.104%; to `Nc1ccc(C(=O)O)c(O)c1`, -5.04%.
For the molecule `CCCC(=O)OCOC(=O)C1=C(C)NC(C)=C(C(=O)OC)C1c1cccc(Cl)c1Cl` (configuration not stated) [Clevidipine], the percent effect is -3.93%.
Consider `CCC[C@@H]1C[C@@H](C(=O)N[C@@H]([C@H]2O[C@H](SC)[C@H](O)[C@@H](O)[C@H]2O)[C@@H](C)O)N(C)C1` [Lincocin], for which the percent effect is -5.21%.
`N[C@@H](CSCCCO)C(=O)O` [fudosteine]: the percent effect was -3.03%.
Turning to `Cc1c(N(C)CS(=O)(=O)O)c(=O)n(-c2ccccc2)n1C` [metamizole sodium], the percent effect is -0.528%.
As for `N[C@@H](CO)C(=O)O` [serine], the percent effect is 0.165%.
For the molecule `CO[C@H]1/C=C/O[C@@]2(C)Oc3c(C)c(O)c4c(O)c(cc(O)c4c3C2=O)NC(=O)/C(C)=C\C=C\[C@H](C)[C@H](O)[C@@H](C)[C@@H](O)[C@@H](C)[C@H](OC(C)=O)[C@@H]1C` [rifamycin], the percent effect is -1.68%.
Take `CCC[C@@H]1C[C@@H](C(=O)N[C@@H]([C@H]2O[C@H](SC)[C@H](O)[C@@H](O)[C@H]2O)[C@H](C)Cl)N(C)C1` [Clindamycin·HCl]: the percent effect is 4.51%.
Same read-out and setting: to `C=C(C)Cn1c(N)cc(=O)n(C)c1=O` [amisometradine] belongs -3.84%; to `CC(C)n1c(/C=C/[C@@H](O)C[C@@H](O)CC(=O)O)c(-c2ccc(F)cc2)c2ccccc21`, -5.61%.
Still for that read-out and setting: to `NC(=O)Nc1ccc(S(=O)(=O)c2ccc(N)cc2)cc1` [amidapsone] belongs -4.47%; to `CCN(CC)CCOC(=O)N(c1ccccc1)c1ccccc1` [dicarfen], -0.492%.
Take `C[C@]12CCC3=C4CCC(=O)C=C4CC[C@H]3[C@@H]1CC[C@@]2(O)CC#N` [dienogest]: the percent effect came out at 0.324%.
`CC[C@H]1OC(=O)[C@H](C)[C@@H](O[C@H]2C[C@@](C)(OC)[C@@H](O)[C@H](C)O2)[C@H](C)[C@@H](O[C@@H]2O[C@H](C)C[C@H](N(C)C)[C@H]2O)[C@](C)(O)C[C@](C)(F)C(=O)[C@H](C)[C@@H](O)[C@]1(C)O` [flurithromycin]: the percent effect is -7.83%.
Turning to `C/C(=C\C(=O)O)C1CCCCC1` [cicrotoic acid], the percent effect was -2.92%.
Turning to `Nc1ccn([C@@H]2O[C@H](CO)[C@@H](O)C2(F)F)c(=O)n1` [gemcitabine], the percent effect amounted to 10.1%.
The same measure, in the same setting: to `O=C(O)C1=C(CSc2nnnn2CS(=O)(=O)O)CS[C@@H]2[C@H](NC(=O)[C@H](O)c3ccccc3)C(=O)N12` [Monocid] belongs -2.13%.
`CCCCOc1ccc(NC(=S)Nc2ccc(N(C)C)cc2)cc1` [N-(4-butoxyphenyl)-N'-[4-(dimethylamino)phenyl]thiourea]: the percent effect was -4.15%.
Same read-out and setting: to `O=c1[nH]cnc2c1ncn2[C@@H]1O[C@H](CO)[C@@H](O)[C@H]1O` [inosine] belongs 5.51%.
Still for that read-out and setting: then `COC[C@H]1O[C@@H](OC2OC[C@@H]3O[C@]4(O[C@H]3[C@H]2OC(=O)C(C)C)O[C@H](C)[C@@](O)(C(C)=O)[C@@H]2OCO[C@H]24)[C@@H](OC)[C@@H](O)[C@@H]1O[C@@H]1O[C@H](C)[C@H](OC)[C@H](O[C@H]2C[C@@]3(C)OC4(C[C@@H](O)[C@H](O[C@H]5C[C@@H](O)[C@H](OC(=O)c6c(C)c(Cl)c(O)c(Cl)c6OC)[C@@H](C)O5)[C@@H](C)O4)O[C@@H]3[C@@H](C)O2)[C@H]1O` (some centres not stated) [avilamycin], with -0.351%; and `C[C@H](Cc1ccc(O)c(O)c1)[C@@H](C)Cc1ccc(O)c(O)c1` [Actinex], with -5.17%.
Turning to `CC(C(=O)O)c1ccc(N2Cc3ccccc3C2=O)cc1` (configuration not stated) [indoprofen], the percent effect is -2.55%.
`CC[C@H]1OC(=O)[C@H](C)[C@@H](O[C@H]2C[C@@](C)(OC)[C@@H](O)[C@H](C)O2)[C@H](C)[C@@H](O[C@@H]2O[C@H](C)C[C@H](N(C)C)[C@H]2O)[C@](C)(O)C[C@@H](C)C(=O)[C@H](C)[C@@H](O)[C@H]1C` [berythromycin]: the percent effect is -4.99%.
